These are literature values, as cited in patent US11564902B2, “Extended duration local anesthetic formulation” (Ventis Pharma, priority 2015, dated 2023).

Like-named read-outs stand apart in the source and are kept apart here.

For this data set the following is noted: cited from earlier work; for toxic dose: intravascular absorption.

Take `CCN(CC)CC(=O)Nc1c(C)cccc1C` [lidocaine]: the “generally accepted toxic dose” value (with epinephrine solution, total dose) was 7 mg per kg. Also, the toxic dose by setting is: (with epinephrine) 7 mg/kg; (without epinephrine) 3 mg per kilogram.
